{"source": "PubChem BioAssay AID504808, Drosophila RNAi Screening Center, 2011", "assay": "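Genes whose loss lifts activity of an E2F-responsive reporter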 (primary screen)", "system": "Drosophila S2 cells", "reagent": "long dsRNA against Drosophila genes", "detection": "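Firefly luciferase driven by E2F sites, normalised to Renilla luciferase on the same minimal promoter, measured by plate reader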", "reading the numbers": "E2F firefly: higher = more E2F reporter activity; Renilla normaliser: higher = more normaliser reporter signal", "rule for the call": "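a knock-down counted as active when the firefly/Renilla E2F signal rose above 50%, a threshold chosen arbitrarily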", "note": "The screen tested about 21,000 reagents; below is an unselected part of those that have a named target and a result. In the full data, 18 (0.084%) are marked active. 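Raw counts without plate normalisation, one of two replicates; the ratio scores behind the calls were not deposited.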 A plus sign joins genes that one reagent is predicted to hit. Not given: the amount of reagent, the time to read-out."}
The first 2 records, ahead of the listing:
{"gene knocked down": "Nlp", "amplicon": "DRSC16759", "E2F firefly, rep 1": 1439, "Renilla normaliser, rep 1": 980, "Outcome": "inactive"}
{"gene knocked down": "Vha26", "amplicon": "DRSC12371", "E2F firefly, rep 1": 74331, "Renilla normaliser, rep 1": 3196, "Outcome": "inactive"}

The list itself, from the first entry:
{"gene knocked down": "Nlp", "amplicon": "DRSC16759", "E2F firefly, rep 1": 1439, "Renilla normaliser, rep 1": 980, "Outcome": "inactive"}
{"gene knocked down": "Vha26", "amplicon": "DRSC12371", "E2F firefly, rep 1": 74331, "Renilla normaliser, rep 1": 3196, "Outcome": "inactive"}
{"gene knocked down": "Nop56", "amplicon": "DRSC14699", "E2F firefly, rep 1": 70635, "Renilla normaliser, rep 1": 3711, "Outcome": "inactive"}
{"gene knocked down": "AstC-R2", "amplicon": "DRSC10051", "E2F firefly, rep 1": 1.69e5, "Renilla normaliser, rep 1": 9682, "Outcome": "inactive"}
{"gene knocked down": "CG30050", "amplicon": "DRSC05342", "E2F firefly, rep 1": 1.26e5, "Renilla normaliser, rep 1": 4691, "Outcome": "inactive"}
{"gene knocked down": "RanBPM", "amplicon": "DRSC06079", "E2F firefly, rep 1": 3006, "Renilla normaliser, rep 1": 263, "Outcome": "inactive"}
{"gene knocked down": "CG33679", "amplicon": "DRSC01436", "E2F firefly, rep 1": 1.34e5, "Renilla normaliser, rep 1": 5423, "Outcome": "inactive"}
{"gene knocked down": "Vps28", "amplicon": "DRSC06168", "E2F firefly, rep 1": 3457, "Renilla normaliser, rep 1": 219, "Outcome": "inactive"}
{"gene knocked down": "CG6180", "amplicon": "DRSC02937", "E2F firefly, rep 1": 75033, "Renilla normaliser, rep 1": 3600, "Outcome": "inactive"}
{"gene knocked down": "CG31835 + CG42585", "amplicon": "DRSC01412", "E2F firefly, rep 1": 1.29e5, "Renilla normaliser, rep 1": 5139, "Outcome": "inactive"}
{"gene knocked down": "Taf12", "amplicon": "DRSC16879", "E2F firefly, rep 1": 70046, "Renilla normaliser, rep 1": 3773, "Outcome": "inactive"}
{"gene knocked down": "CG14212", "amplicon": "DRSC19568", "E2F firefly, rep 1": 1.27e5, "Renilla normaliser, rep 1": 6759, "Outcome": "inactive"}
{"gene knocked down": "Phae2", "amplicon": "DRSC02555", "E2F firefly, rep 1": 92283, "Renilla normaliser, rep 1": 4178, "Outcome": "inactive"}
{"gene knocked down": "Hr83", "amplicon": "DRSC12521", "E2F firefly, rep 1": 1.48e5, "Renilla normaliser, rep 1": 6957, "Outcome": "inactive"}
{"gene knocked down": "H", "amplicon": "DRSC16692", "E2F firefly, rep 1": 1.57e5, "Renilla normaliser, rep 1": 7190, "Outcome": "inactive"}
{"gene knocked down": "Snx3", "amplicon": "DRSC16027", "E2F firefly, rep 1": 1.49e5, "Renilla normaliser, rep 1": 6666, "Outcome": "inactive"}
{"gene knocked down": "CG31266", "amplicon": "DRSC15747", "E2F firefly, rep 1": 1.29e5, "Renilla normaliser, rep 1": 5896, "Outcome": "inactive"}
{"gene knocked down": "CG16824", "amplicon": "DRSC02525", "E2F firefly, rep 1": 94476, "Renilla normaliser, rep 1": 3783, "Outcome": "inactive"}
{"gene knocked down": "TwdlT", "amplicon": "DRSC16677", "E2F firefly, rep 1": 1.34e5, "Renilla normaliser, rep 1": 6385, "Outcome": "inactive"}
